# Changes are numbered by the printed parent chain. Results are given in words; binding and its absence hold for the method and conditions named. Some entries that bind do so weakly or less than the wild type.
# Amino acid sequences for entries named in this document (tags omitted). Residues count along the entry.
# UniProt P10646, residues 29-304: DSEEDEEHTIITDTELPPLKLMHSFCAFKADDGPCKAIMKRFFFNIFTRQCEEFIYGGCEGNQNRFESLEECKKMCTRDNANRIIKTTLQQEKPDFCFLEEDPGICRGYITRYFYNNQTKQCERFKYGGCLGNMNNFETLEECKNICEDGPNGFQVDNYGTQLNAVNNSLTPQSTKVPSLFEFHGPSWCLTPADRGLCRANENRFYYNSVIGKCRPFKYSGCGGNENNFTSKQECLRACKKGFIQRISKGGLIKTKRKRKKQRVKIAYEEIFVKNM
# B1: TP-3E1 (Fab, V domains shown)
# VH: QVQLVESGGGLVQPGGSLRLSCAASGFTFSNYAMTWVRQAPGKGLEWVSVISSVGSNTYYADSVKGRFTISRDNSKNTLYLQMNSLRAEDTAVYYCARPTKAGRTWWWGPYMDVWGQGTLVTVSS
# VL: DIELTQPPSVSVAPGQTARISCSGDNIGSYYAYWYQQKPGQAPVLVIYDDSNRPSGIPERFSGSNSGNTATLTISGTQAEDEADYYCQSYDSTGLLVFGGGTKLTVLG
# B2: TP-3F1 (Fab, V domains shown)
# VH: QVQLVQSGAEVKKPGESLKISCKGSGYSFTDYWIGWVRQMPGKGLEWMGIIQPSDSDTNYSPSFQGQVTISADKSISTAYLQWSSLKASDTAMYYCARFMWWGKYDSGFDVWGQGTLVTVSS
# VL: DIELTQPPSVSVAPGQTARISCSGDNIGSYFASWYQQKPGQAPVLVIYDDSNRPSGIPERFSGSNSGNTATLTISGTQAEDEADYYCEGSNVFGGGTKLTVLG
# B3: TP-3F2 (Fab, V domains shown)
# VH: QVQLVESGGGLVQPGGSLRLSCAASGFTFSSYSMHWVRQAPGKGLEWVSGISYSSSFTYYADSVKGRFTISRDNSKNTLYLQMNSLRAEDTAVYYCARALGGGVDYWGQGTLVTVSS
# VL: DIELTQPPSVSVAPGQTARISCSGDNLPSKSVYWYQQKPGQAPVLVIYGDNNRPSGIPERFSGSNSGNTATLTISGTQAEDEADYYCQSWTSRPMVVFGGGTKLTVLG
# B4: TP-3G1 (Fab, V domains shown)
# VH: QVQLQQSGPGLVKPSQTLSLTCAISGDSVSSNSGGWGWIRQSPGRGLEWLGLIYYRSKWYNAYAVSVKSRITINPDTSKNQFSLQLNSVTPEDTAVYYCARYLGSNFYVYSDVWGQGTLVTVSS
# VL: DIQMTQSPSSLSASVGDRVTITCRASQGISSYLHWYQQKPGKAPKLLIYGASTLQSGVPSRFSGSGSGTDFTLTISSLQPEDFATYYCQQQNGYPFTFGQGTKVEIKR
# B5: TP-3G3 (Fab, V domains shown)
# VH: QVQLVESGGGLVQPGGSLRLSCAASGFTFSSYSMSWVRQAPGKGLEWVSSISSSSSNTYYGDSVKGRFTISRDNSKNTLYLQMNSLRAEDTAVYYCARMHYKGMDIWGQGTLVTVSS
# VL: DIQMTQSPSSLSASVGDRVTITCRASQNIHSHLNWYQQKPGKAPKLLIYDASSLQSGVPSRFSGSGSGTDFTLTISSLQPEDFAVYYCQQYYDYPLTFGQGTKVEIKR
# B6: TP-3H2 (Fab, V domains shown)
# VH: QVQLVESGGGLVQPGGSLRLSCAASGFTFNSYYMSWVRQAPGKGLEWVSNISSSGSNTNYADSVKGRFTISRDNSKNTLYLQMNSLRAEDTAVYYCARVHYGFDFWGQGTLVTVSS
# VL: DIELTQPPSVSVAPGQTARISCSGDKLGKYYAYWYQQKPGQAPVLVIYGDSKRPSGIPERFSGSNSGNTATLTISGTQAEDEADYYCSSAAFGSTVFGGGTKLTVLG
# B7: TP-4A7 (Fab, V domains shown)
# VH: QVQLVESGGGLVQPGGSLRLSCAASGFTFRNYAMNWVRQAPGKGLEWVSVISGSSSYTYYADSVKGRFTISRDNSKNTLYLQMNSLRAEDTAVYYCARADLPYMVFDYWGQGTLVTVSS
# VL: B1 VL with N26A, I27L, Y30K, Y31F, Y33H, N52E, S89A, T93G, G94L, L96Y
# B8: TP-4A9 (Fab, V domains shown)
# VH: QVQLVESGGGLVQPGGSLRLSCAASGFTFSSYGMSWVRQAPGKGLEWVSLISGVSSSTYYADSVKGRFTISRDNSKNTLYLQMNSLRAEDTAVYYCARSYLGYFDVWGQGTLVTVSS
# VL: B6 VL with K26A, Y33S, S51N, S88Q, A90Y, A91T, F92T, G93R, T95L
# B9: TP-4E8 (Fab, V domains shown)
# VH: QVQLVESGGGLVQPGGSLRLSCAASGFTFNDYAMSWVRQAPGKGLEWVSLIESVSSSTYYADSVKGRFTISRDNSKNTLYLQMNSLRAEDTAVYYCARTIGVLWDDVWGQGTLVTVSS
# VL: DIELTQPPSVSVAPGQTARISCSGDALGSKYVSWYQQKPGQAPVLVIYGDNKRPSGIPERFSGSNSGNTATLTISGTQAEDEADYYCQSYTYSLNQVFGGGTKLTVLG
# B10: TP-4G8 (Fab, V domains shown)
# VH: QVQLVESGGGLVQPGGSLRLSCAASGFTFSTYAMHWVRQAPGKGLEWVSTISGYGSFTYYADSVKGRFTISRDNSKNTLYLQMNSLRAEDTAVYYCARNGRKYGQMDNWGQGTLVTVSS
# VL: DIELTQPPSVSVAPGQTARISCSGDKLGSKSVHWYQQKPGQAPVLVIYRDTDRPSGIPERFSGSNSGNTATLTISGTQAEDEADYYCQTYDYILNVFGGGTKLTVLG
# B11: TP-4H8 (Fab, V domains shown)
# VH: QVQLVESGGGLVQPGGSLRLSCAASGFTFSDHAMHWVRQAPGKGLEWVSVIEYSGSKTNYADSVKGRFTISRDNSKNTLYLQMNSLRAEDTAVYYCARGDYYPYLVFAIWGQGTLVTVSS
# VL: DIELTQPPSVSVAPGQTARISCSGDSIGKKYVHWYQQKPGQAPVLVIYGDNNRPSGIPERFSGSNSGNTATLTISGTQAEDEADYYCSTADSVITYKNVFGGGTKLTVLG
# B12: TP-2A10 (Fab, V domains shown)
# VH: QVQLVESGGGLVQPGGSLRLSCAASGFTFTSYSMNWVRQAPGKGLEWVSAISYTGSNTHYADSVKGRFTISRDNSKNTLYLQMNSLRAEDTAVYYCARAFLGYKESYFDIWGQGTLVTVSS
# VL: DIELTQPPSVSVAPGQTARISCSGDKLGKKYVHWYQQKPGQAPVLVIYGDDKRPSGIPERFSGSNSGNTATLTISGTQAEDEADYYCQAWGSISRFVFGGGTKLTVLG
# B13: TP-2B1 (Fab, V domains shown)
# VH: QVQLVESGGGLVQPGGSLRLSCAASGFTFSSYSMSWVRQASGKGLEWVSSIKGSGSNTYYADSVKGRFTISRDNSKNTLYLQMNSLRAEDTAVYYCARNGGLIDVWGQGTLVTVSS
# VL: DIELTQPPSVSVAPGQTARISCSGDNLGNKYAHWYQQKPGQAPVLVIYYDNKRPSGIPERFSGSNSGNTATLTISGTQAEDEADYYCQSWTPGSNTMVFGGGTRLTVLG
# B14: TP-2B3 (Fab, V domains shown)
# VH: QVQLQQSGPGLVKPSQTLSLTCAISGDSVSSNSAAWGWIRQSPGRGLEWLGMIYYRSKWYNSYAVSVKSRITINPDTSKNQFSLQLNSVTPEDTAVYYCARTMSKYGGPGMDVWGQGTLVTVSS
# VL: DIVLTQSPATLSLSPGERATLSCRASQNIGSNYLAWYQQKPGQAPRLLIYGASTRATGVPARFNGSGSGTDFTLTISSLEPEDFAVYYCQQLNSIPVTFGQGTKVEIKR
# B15: TP-2B4 (Fab, V domains shown)
# VH: QVQLVESGGGLVQPGGSLRLSCAASGFTFSNYSMTWVRQAPGKGLEWVSGISYNGSNTYYADSVKGRFTISRDNSKNTLYLQMNSLRAEDTAVYYCARIYYMNLLAGWGQGTLVTVSS
# VL: DIELTQPPSVSVAPGQTARISCSGDALGTYYAYWYQQKPGQAPVLVIYGDMNRPSGIPERFSGSNSGNTATLTISGTQAEDEADYYCQSYDAGVKPAVFGGGTKLTVLG
# B16: TP-2B8 (Fab, V domains shown)
# VH: QVQLVQSGAEVKKPGASVKVSCKASGYTFTGNSMHWVRQAPGQGLEWMGTIFPYDGTTKYAQKFQGRVTMTRDTSISTAYMELSSLRSEDTAVYYCARGVHSYFDYWGQGTLVTVSS
# VL: DIELTQPPSVSVAPGQTARISCSGDNLRGYYASWYQQKPGQAPVLVIYEDNNRPSGIPERFSGSNSGNTATLTISGTQAEDEADYYCQSWDSPYVHVFGGGTKLTVLG
# Molecular target: human tissue factor pathway inhibitor (TFPI) (human) (UniProt P10646)
# Test: ELISA, Fab from bacterial lysate on coated human TFPI
row,Binder,binding
1,B1,binds
2,B2,binds
3,B3,binds
4,B4,binds
5,B5,binds
6,B6,binds
7,B7,binds
8,B8,binds
9,B9,binds
10,B10,binds
11,B11,binds
12,B12,binds
13,B13,binds
14,B14,binds
15,B15,binds
16,B16,binds

# From patent JP2018108089A
